Results deposited as PubChem BioAssay AID1259405 (NCATS, 2018).
Aim: 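Silenced genes that increase secreted GFP made by CHO cells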 (primary screen). Cells: Chinese hamster CHO-K1 ovary cells with stable secreted eGFP expression. Reagent: single siRNA against mouse genes, 0.8 pmol siRNA per well (2 µl of 400 nM stock). Duration: 3 days. Measurement: 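Per-well intracellular GFP measured by laser scanning cytometry, plus viability from ATP luminescence, each relative to plate median of non-targeting control wells, in %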. Reading the numbers: GFP, % of control: higher = more GFP per well, higher productivity. Hit rule: 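a knock-down is called active if GFP reaches 120% or more of non-targeting control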.
The deposit covers about 50,000 reagents; shown is a random part of them. About 4,000 of all reagents (8%) count as active. 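Mouse siRNA library applied to hamster cells; one well for each siRNA.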 Reagents against one gene are numbered here. Further read-outs or replicates are left out here. Reagent sequences are not shown.

GFP, % of control, by gene and reagent
Pcdhb12: #1 67.3 inactive; #2 80.1 inactive; #3 71.3 inactive
Snrpb2: #1 184 active; #2 47 inactive
Gm9871: #1 77.8 inactive; #2 59.3 inactive; #3 78.7 inactive
Rab3d: #1 149 active; #2 105 inactive
Col26a1: #1 60.3 inactive; #2 109 inactive; #3 73.8 inactive
Pebp1: #1 84.1 inactive; #2 140 active; #3 191 active
Ube3a: #1 78.4 inactive; #2 29.7 inactive; #3 66.7 inactive
Phf6: #1 86.5 inactive; #2 92.4 inactive; #3 113 inactive
Prpf18: #1 93.4 inactive; #2 38.7 inactive; #3 74.6 inactive
Or8g28: #1 81.3 inactive; #2 82.1 inactive; #3 71.6 inactive
Nme8: #1 75.7 inactive; #2 89.8 inactive; #3 59.4 inactive
Or4a15: #1 65.3 inactive; #2 57.4 inactive; #3 41.3 inactive
Speer1h: #1 56.7 inactive; #2 61.7 inactive; #3 99.2 inactive
Slc25a48: #1 54.3 inactive; #2 95.7 inactive; #3 91.4 inactive
Pot1b: #1 68.4 inactive; #2 55.5 inactive; #3 95.3 inactive
Anapc10: #1 71.9 inactive; #2 104 inactive; #3 77.6 inactive
B930095G15Rik: #1 88.2 inactive; #2 51.6 inactive; #3 128 active
Klhdc3: #1 41.6 inactive; #2 127 active; #3 32.4 inactive
Bcl7c: #1 46.9 inactive; #2 75.4 inactive; #3 96.2 inactive
Itsn1: #1 71.9 inactive; #2 85.3 inactive; #3 29.8 inactive
